Patent US9315546B2, “Growth hormone secretatogue receptor antagonists and uses thereof” (The Administrators of the Tulane Educational Fund, priority 2010, dated 2016)
At least one compound was matched to its structure with a doubt left. Where a SMILES comes first, the peptide text is derived from it. [ ]: non-standard residue; d: D form. The star is where a group is joined. Octanoyl = CCCCCCCC(=O)*; Dap = NC[C@H](N)C(=O)O

Amino acid sequences for entries named in this document (tags omitted).
UniProt Q92847, whole entry: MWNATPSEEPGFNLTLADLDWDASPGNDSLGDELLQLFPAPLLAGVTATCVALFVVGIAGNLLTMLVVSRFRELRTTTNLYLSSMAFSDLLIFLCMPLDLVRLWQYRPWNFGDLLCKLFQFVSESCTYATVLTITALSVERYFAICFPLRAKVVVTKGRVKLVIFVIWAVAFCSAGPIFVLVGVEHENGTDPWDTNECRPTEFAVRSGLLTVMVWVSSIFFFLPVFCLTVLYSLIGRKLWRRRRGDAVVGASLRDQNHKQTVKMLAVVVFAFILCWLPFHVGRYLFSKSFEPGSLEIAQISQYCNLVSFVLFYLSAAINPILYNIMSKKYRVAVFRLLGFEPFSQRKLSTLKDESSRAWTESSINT

Biological target: T1, human ghrelin receptor type 1a (GHS-R1a) (Homo sapiens, UniProt Q92847)
T1 construct: expressed in transfected cells; host or cells: HEK-293 cells (membranes)
Experiment: Receptor binding, displacement of radiolabelled ghrelin, HEK-293 cell membranes
Conditions: for IC50: read-out: IC50, Ghrelin/GHS Antagonist Receptor Activity; for Ki: read-out: Ki, Ghrelin/GHS Antagonist Receptor Activity

For `CCCCCCCC(=O)NC[C@H](NC(=O)[C@H](CO)NC(=O)CNC(=O)[C@H](C)NC(=O)[C@H](CCSC)NC(=O)CN)C(=O)N[C@@H](Cc1ccccc1)C(=O)N[C@@H](CC(C)C)C(=O)N[C@@H](CO)C(=O)N1CCC[C@H]1C(=O)N[C@@H](CCC(=O)O)C(=O)N[C@@H](Cc1c[nH]cn1)C(=O)N[C@@H](CCC(N)=O)C(=O)N[C@@H](CCCNC(=N)N)C(=O)N[C@H](C(=O)N[C@@H](CCC(N)=O)C(=O)N[C@@H](CCC(N)=O)C(=O)N[C@@H](CCCNC(=N)N)C(=O)N[C@@H](CCCCN)C(=O)N[C@@H](CCC(=O)O)C(=O)N[C@@H](CO)C(=O)N[C@@H](CCCCN)C(=O)N[C@@H](CCCCN)C(=O)N1CCC[C@H]1C(=O)N1CCC[C@H]1C(=O)N[C@@H](C)C(=O)N[C@@H](CCCCN)C(=O)N[C@@H](CC(C)C)C(=O)N[C@@H](CCC(N)=O)C(=O)N1CCC[C@H]1C(=O)N[C@@H](CCCNC(=N)N)C(N)=O)C(C)C` [#4], the IC50 was 22.2 nM and the Ki was 12.4 nM.

For `CCCCCCCC(=O)NC[C@H](NC(=O)[C@H](CO)NC(=O)CNC(=O)[C@H](C)NC(=O)[C@H](CCSC)NC(=O)CN)C(=O)N[C@@H](Cc1ccccc1)C(=O)N[C@@H](CC(C)C)C(=O)N[C@@H](CO)C(=O)N1CCC[C@H]1C(=O)N[C@@H](CCC(=O)O)C(=O)N[C@@H](Cc1c[nH]cn1)C(N)=O` [#3, Gly-Met-Ala-Gly-Ser-(Dap-Oct)-Phe-Leu-Ser-Pro-Glu-His-NH2] (H-GMAGS[Dap](Octanoyl)FLSPEH-NH2; N-terminus assumed), the IC50 was 7960 nM and the Ki was 4450 nM.
